Values from PubChem BioAssay AID1224826 (NIAID, 2016)

- Aim: 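Regulators of Tlr4 signalling leading to Tnf-alpha expression in macrophages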 (primary screen)
- Cell system: RAW264.7 G9 macrophages from mouse bearing reporters for p65 (GFP) and the Tnf promoter (mCherry)
- Knock-down reagent: siRNA pool against mouse genes, 100 nM
- Timing: 16 h of LPS stimulation, after 2 days of siRNA transfection
- Challenge: bacterial lipopolysaccharide (Salmonella minnesota R595), 10 ng/ml
- Measurement: 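Imaged Tnf reporter mCherry in nuclei, minus background, normalised per plate to the median and expressed as robust z-scores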
- Reading the numbers: Tnf reporter robust z-score: higher = stronger Tnf promoter reporter signal after LPS
- Call rule: 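Called active when robust z-score is at most -1.3, matching the median of the Tlr4 knock-down control, or over 3; control wells and wells with under 50 cells never active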
- Calls: active = Tnf reporter clearly lowered or raised; inactive = no clear change in Tnf reporter
Shown is an unselected part of about 17,000 deposited reagents. Of all reagents, about 1,110 (6.6%) were called active. 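Active means lowered or raised reporter signal; replicate intensities are raw and not normalised per plate.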 Unmarked entries are inactive. Reagents against one gene are numbered here. Not all columns of the deposit are shown.

gene knocked down	pool no.	Tnf reporter robust z-score	fewer than 50 cells in well
Hpx (GeneID 15458)	1	-1	enough cells in well
Actg1 (GeneID 11465)	1	-1.36 (active)	enough cells in well
Wfdc5 (GeneID 209232)	1	-0.66	enough cells in well
Abi2 (GeneID 329165)	1	-0.12	enough cells in well
Vmn1r23 (GeneID 171197)	1	0.86	enough cells in well
Stxbp5l (GeneID 207227)	1	-0.78	enough cells in well
Defb41 (GeneID 77673)	1	2.58	enough cells in well
Sil1 (GeneID 81500)	1		fewer than 50 cells per well; well left out of calls
Lpgat1 (GeneID 226856)	1	-1.18	enough cells in well
2310022A10Rik (GeneID 66367)	1		fewer than 50 cells per well; well left out of calls
Zfp60 (GeneID 22718)	1	-0.14	enough cells in well
Zfp60 (GeneID 22718)	2	0.61	enough cells in well
Clca2 (GeneID 229933)	1	-0.7	enough cells in well
Mef2d (GeneID 17261)	1	-0.3	enough cells in well
Itgal (GeneID 16408)	1	-0.59	enough cells in well
Erv3 (GeneID 71995)	1	0.96	enough cells in well
Cdh10 (GeneID 320873)	1	0.11	enough cells in well
Rsrp1 (GeneID 27981)	1	-1.36 (active)	enough cells in well
Nudt19 (GeneID 110959)	1		fewer than 50 cells per well; well left out of calls
Sv2a (GeneID 64051)	1	-1.32 (active)	enough cells in well
Tprg1 (GeneID 71338)	1	1.24	enough cells in well
Acot2 (GeneID 171210)	1		fewer than 50 cells per well; well left out of calls
Nradd (GeneID 67169)	1	1.46	enough cells in well
Hoxd13 (GeneID 15433)	1	1.22	enough cells in well
Alg14 (GeneID 66789)	1	0.58	enough cells in well
Them5 (GeneID 66198)	1		fewer than 50 cells per well; well left out of calls
Spg21 (GeneID 27965)	1		fewer than 50 cells per well; well left out of calls
Wdr62 (GeneID 233064)	1		fewer than 50 cells per well; well left out of calls
Chrnb4 (GeneID 108015)	1	-1.74 (active)	enough cells in well
Pcgf5 (GeneID 76073)	1	0.25	enough cells in well
Usf1 (GeneID 22278)	1	-0.2	enough cells in well
Hirip3 (GeneID 233876)	1	0.33	enough cells in well
Rpl3l (GeneID 66211)	1	1.09	enough cells in well
Brf1 (GeneID 72308)	1		fewer than 50 cells per well; well left out of calls
Adam1a (GeneID 280668)	1	3.28 (active)	enough cells in well
Zfp455 (GeneID 218311)	1	2.1	enough cells in well
Ak2 (GeneID 11637)	1	0.82	enough cells in well
Vmn1r19 (GeneID 171200)	1	2.32	enough cells in well
Saa2 (GeneID 20209)	1	0.03	enough cells in well
Or5p56 (GeneID 258928)	1	-0.7	enough cells in well
Nudcd2 (GeneID 52653)	1	-0.44	enough cells in well
Fgf11 (GeneID 14166)	1	0.97	enough cells in well
Zdhhc13 (GeneID 243983)	1		fewer than 50 cells per well; well left out of calls
Grin2a (GeneID 14811)	1	0.24	enough cells in well
Tmem120a (GeneID 215210)	1		fewer than 50 cells per well; well left out of calls
Ctrb1 (GeneID 66473)	1	-0.14	enough cells in well
Tor4a (GeneID 227612)	1		fewer than 50 cells per well; well left out of calls
Dcc (GeneID 13176)	1	0.67	enough cells in well
Gemin4 (GeneID 276919)	1	0.88	enough cells in well
Pole2 (GeneID 18974)	1	-0.55	enough cells in well
Pde9a (GeneID 18585)	1	-0.33	enough cells in well
Gpr37l1 (GeneID 171469)	1	-0.33	enough cells in well
Etnk1 (GeneID 75320)	1	0.92	enough cells in well
Efna2 (GeneID 13637)	1	0.5	enough cells in well
Paqr4 (GeneID 76498)	1	-1.48 (active)	enough cells in well
Ryr2 (GeneID 20191)	1	0.06	enough cells in well
Serpine1 (GeneID 18787)	1	-0.2	enough cells in well
Gabrb2 (GeneID 14401)	1	-1.2	enough cells in well
Gabrb2 (GeneID 14401)	2	0.82	enough cells in well
Zswim4 (GeneID 212168)	1	-0.47	enough cells in well
Tkt (GeneID 21881)	1	-0.29	enough cells in well
Gm4894 (GeneID 235327)	1	1.23	enough cells in well
Clca4a (GeneID 99663)	1	-0.79	enough cells in well
Slc22a21 (GeneID 56517)	1	1.73	enough cells in well
Prol1 (GeneID 17830)	1	0.07	enough cells in well
3300002I08Rik (GeneID 69277)	1		fewer than 50 cells per well; well left out of calls
Dnajc19 (GeneID 67713)	1	0.81	enough cells in well
Arhgap5 (GeneID 11855)	1	0.8	enough cells in well
Nek1 (GeneID 18004)	1	-0.25	enough cells in well
Flnc (GeneID 68794)	1	0.04	enough cells in well
Ndufs7 (GeneID 75406)	1	0.12	enough cells in well
Tspan32 (GeneID 27027)	1	-0.89	enough cells in well
Elovl7 (GeneID 74559)	1	-0.39	enough cells in well
Kpna4 (GeneID 16649)	1	-0.05	enough cells in well
Rmi1 (GeneID 74386)	1	3.07 (active)	enough cells in well
